{"sequences": {"note": "Amino acid sequences for entries named in this document (tags omitted).", "UniProt P48432": "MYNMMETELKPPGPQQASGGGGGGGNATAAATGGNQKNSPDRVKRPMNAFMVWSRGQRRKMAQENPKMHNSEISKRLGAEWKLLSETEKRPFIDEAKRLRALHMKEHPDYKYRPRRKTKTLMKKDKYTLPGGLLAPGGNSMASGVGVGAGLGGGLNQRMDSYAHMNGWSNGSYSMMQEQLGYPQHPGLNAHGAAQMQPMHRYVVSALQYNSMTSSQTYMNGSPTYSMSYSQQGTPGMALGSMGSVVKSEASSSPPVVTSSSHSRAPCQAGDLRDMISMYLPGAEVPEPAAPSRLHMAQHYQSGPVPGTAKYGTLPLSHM", "UniProt P80206": "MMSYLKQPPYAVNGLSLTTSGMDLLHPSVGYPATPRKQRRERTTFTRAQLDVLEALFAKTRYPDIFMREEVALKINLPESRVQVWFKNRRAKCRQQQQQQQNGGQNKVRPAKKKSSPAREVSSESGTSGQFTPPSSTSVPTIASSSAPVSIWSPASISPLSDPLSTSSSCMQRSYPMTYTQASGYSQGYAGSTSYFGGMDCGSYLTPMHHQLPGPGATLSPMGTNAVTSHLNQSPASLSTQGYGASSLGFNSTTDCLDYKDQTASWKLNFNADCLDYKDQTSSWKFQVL"}, "source": "paper PMC12448815", "target": "SRY-Box Transcription Factor 2 (SOX2) (mouse (endogenous in NOTCH-driven CP tumors)) (UniProt P48432)", "assay": "co-IP; NOTCH-driven CP tumors; carried out as previously described (ref. 33); which protein was precipitated is not told", "note": "These are yes or no findings as the source states them, for the method shown. Binding seen in cells or lysates may run through a third protein. Some entries that bind do so weakly or less than the wild type."}
{"substance": "orthodenticle homeobox 2 (OTX2) (from UniProt P80206 1-289)", "values": [{"measurement": "binding", "result": "binds"}]}
